{"source": "PubChem BioAssay AID1259254 (NCATS, 2017)", "assay": "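Genome-wide screen for genes that prevent DNA re-replication in cancer cells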 (primary screen)", "system": "human HCT116 colorectal cancer cells", "knock-down reagent": "single siRNA against human genes", "timing": "3 days", "measurement": "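Imaged Hoechst DNA stain sorts each cell into a cycle phase by DNA amount; per plate, G2 fraction set to 0% for non-targeting and 100% for GMNN siRNA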", "direction": "G2 robust z-score and G2 cells, % of GMNN control: higher = more G2 cells, more excess DNA replication", "call rule": "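Active siRNAs have a G2 robust z of 5 or more median absolute deviations over the median, which in these data means about 38% or higher of GMNN control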", "note": "The whole screen tested about 59,000 reagents; below is a random part of them. In the full data, about 1,550 (2.6%) got an active call. 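G2 share is only a proxy for re-replication; each gene was hit by three separate siRNAs, and active genes were retested.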 Reagents against one gene are numbered here. Further read-outs or replicates are left out here. Not given: the amount of reagent."}
{"gene": "SLC22A2 (GeneID 6582)", "siRNA no.": 1, "G2 robust z-score": -0.846, "G2 cells, % of GMNN control": -2.98, "Outcome": "inactive"}
{"gene": "SLC22A2 (GeneID 6582)", "siRNA no.": 2, "G2 robust z-score": -0.51, "G2 cells, % of GMNN control": -0.622, "Outcome": "inactive"}
{"gene": "SLC22A2 (GeneID 6582)", "siRNA no.": 3, "G2 robust z-score": -0.28, "G2 cells, % of GMNN control": 0.994, "Outcome": "inactive"}
{"gene": "DPH1 (GeneID 1801)", "siRNA no.": 1, "G2 robust z-score": -0.832, "G2 cells, % of GMNN control": -2.89, "Outcome": "inactive"}
{"gene": "DPH1 (GeneID 1801)", "siRNA no.": 2, "G2 robust z-score": 0.822, "G2 cells, % of GMNN control": 8.75, "Outcome": "inactive"}
{"gene": "DPH1 (GeneID 1801)", "siRNA no.": 3, "G2 robust z-score": -0.494, "G2 cells, % of GMNN control": -0.509, "Outcome": "inactive"}

Next part, starting with the last 2 of the part before.
{"gene": "DPH1 (GeneID 1801)", "siRNA no.": 2, "G2 robust z-score": 0.822, "G2 cells, % of GMNN control": 8.75, "Outcome": "inactive"}
{"gene": "DPH1 (GeneID 1801)", "siRNA no.": 3, "G2 robust z-score": -0.494, "G2 cells, % of GMNN control": -0.509, "Outcome": "inactive"}
{"gene": "KAT14 (GeneID 57325)", "siRNA no.": 1, "G2 robust z-score": -1.09, "G2 cells, % of GMNN control": -4.72, "Outcome": "inactive"}
{"gene": "KAT14 (GeneID 57325)", "siRNA no.": 2, "G2 robust z-score": -0.188, "G2 cells, % of GMNN control": 1.65, "Outcome": "inactive"}
{"gene": "KAT14 (GeneID 57325)", "siRNA no.": 3, "G2 robust z-score": 2.97, "G2 cells, % of GMNN control": 23.9, "Outcome": "inactive"}
{"gene": "KRT9 (GeneID 3857)", "siRNA no.": 1, "G2 robust z-score": 0.802, "G2 cells, % of GMNN control": 8.61, "Outcome": "inactive"}
{"gene": "KRT9 (GeneID 3857)", "siRNA no.": 2, "G2 robust z-score": 0.819, "G2 cells, % of GMNN control": 8.73, "Outcome": "inactive"}
{"gene": "KRT9 (GeneID 3857)", "siRNA no.": 3, "G2 robust z-score": 0.398, "G2 cells, % of GMNN control": 5.77, "Outcome": "inactive"}
